{"source": "PubChem BioAssay AID1224828 (NIAID, 2016)", "screen": "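Find genes required for NF-kappaB p65 moving into the nucleus after LPS in mouse macrophages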 (primary screen)", "cell system": "mouse RAW264.7 G9 macrophage reporter cells (GFP-p65, Tnf promoter-mCherry)", "reagents": "siRNA pool against mouse genes, 100 nM", "timing": "2 days siRNA transfection, then 40 min LPS before fixation", "challenge": "LPS (Salmonella minnesota R595) at 10 ng/ml", "read-out": "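Imaged p65 nuclear translocation ratio, normalised to the plate median, converted to robust z-scores and averaged across two replicates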", "direction": "p65 translocation robust z-score: higher = more nuclear NF-kappaB p65 after LPS than the plate median; nuclear/cytoplasmic p65 ratio: higher = more nuclear NF-kappaB p65", "hit rule": "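Active if robust z is above 3.3 (negative regulators) or below -1.56, the Tlr4 control median (positive regulators); activity score 50 or more; control wells not called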", "meaning of the calls": "active = hit (p65 shift raised or lowered); inactive = no clear change", "note": "Here is a random part of about 17,000 deposited reagents. 762 of them (4.5%) were called active. 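Active calls include both raised and lowered p65 entry, mostly lowered; wells with fewer than 50 cells lack a z-score.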 The raw values are shown without normalisation."}
{"gene symbol":"Or7d9","p65 translocation robust z-score":-0.45,"nuclear/cytoplasmic p65 ratio, rep 1":1.57,"nuclear/cytoplasmic p65 ratio, rep 2":1.33,"low cell count flag":"enough cells to score","activity call":"inactive"}
{"gene symbol":"Desi2","nuclear/cytoplasmic p65 ratio, rep 1":1.32,"nuclear/cytoplasmic p65 ratio, rep 2":1.04,"low cell count flag":"fewer than 50 cells per well; well left out of scoring","activity call":"inactive"}
{"gene symbol":"Afg1l","p65 translocation robust z-score":0.57,"nuclear/cytoplasmic p65 ratio, rep 1":1.59,"nuclear/cytoplasmic p65 ratio, rep 2":1.55,"low cell count flag":"enough cells to score","activity call":"inactive"}
{"gene symbol":"Cpa6","p65 translocation robust z-score":0.66,"nuclear/cytoplasmic p65 ratio, rep 1":1.74,"nuclear/cytoplasmic p65 ratio, rep 2":1.68,"low cell count flag":"enough cells to score","activity call":"inactive"}
{"gene symbol":"2810032G03Rik","p65 translocation robust z-score":-1,"nuclear/cytoplasmic p65 ratio, rep 1":1.29,"nuclear/cytoplasmic p65 ratio, rep 2":1.31,"low cell count flag":"enough cells to score","activity call":"inactive"}
{"gene symbol":"Prrx2","p65 translocation robust z-score":-0.3,"nuclear/cytoplasmic p65 ratio, rep 1":1.45,"nuclear/cytoplasmic p65 ratio, rep 2":1.37,"low cell count flag":"enough cells to score","activity call":"inactive"}
{"gene symbol":"Espn","p65 translocation robust z-score":-0.64,"nuclear/cytoplasmic p65 ratio, rep 1":1.48,"nuclear/cytoplasmic p65 ratio, rep 2":1.4,"low cell count flag":"enough cells to score","activity call":"inactive"}
{"gene symbol":"Stard8","p65 translocation robust z-score":-0.23,"nuclear/cytoplasmic p65 ratio, rep 1":1.39,"nuclear/cytoplasmic p65 ratio, rep 2":1.2,"low cell count flag":"enough cells to score","activity call":"inactive"}
{"gene symbol":"Diaph2","p65 translocation robust z-score":0.73,"nuclear/cytoplasmic p65 ratio, rep 1":1.58,"nuclear/cytoplasmic p65 ratio, rep 2":1.47,"low cell count flag":"enough cells to score","activity call":"inactive"}
{"gene symbol":"Ube2d3","p65 translocation robust z-score":-0.75,"nuclear/cytoplasmic p65 ratio, rep 1":1.45,"nuclear/cytoplasmic p65 ratio, rep 2":1.36,"low cell count flag":"enough cells to score","activity call":"inactive"}
{"gene symbol":"Pdia2","p65 translocation robust z-score":0.4,"nuclear/cytoplasmic p65 ratio, rep 1":1.52,"nuclear/cytoplasmic p65 ratio, rep 2":1.44,"low cell count flag":"enough cells to score","activity call":"inactive"}
{"gene symbol":"Zbtb26","p65 translocation robust z-score":-0.28,"nuclear/cytoplasmic p65 ratio, rep 1":0,"nuclear/cytoplasmic p65 ratio, rep 2":1.49,"low cell count flag":"enough cells to score","activity call":"inactive"}
{"gene symbol":"Ptov1","nuclear/cytoplasmic p65 ratio, rep 1":0,"nuclear/cytoplasmic p65 ratio, rep 2":1,"low cell count flag":"fewer than 50 cells per well; well left out of scoring","activity call":"inactive"}
{"gene symbol":"Zfp329","p65 translocation robust z-score":1.08,"nuclear/cytoplasmic p65 ratio, rep 1":1.32,"nuclear/cytoplasmic p65 ratio, rep 2":1.47,"low cell count flag":"enough cells to score","activity call":"inactive"}
{"gene symbol":"Rbm3","p65 translocation robust z-score":0.29,"nuclear/cytoplasmic p65 ratio, rep 1":1.49,"nuclear/cytoplasmic p65 ratio, rep 2":1.23,"low cell count flag":"enough cells to score","activity call":"inactive"}
{"gene symbol":"Rab4a","p65 translocation robust z-score":0.72,"nuclear/cytoplasmic p65 ratio, rep 1":1.74,"nuclear/cytoplasmic p65 ratio, rep 2":1.5,"low cell count flag":"enough cells to score","activity call":"inactive"}
{"gene symbol":"Adcy4","p65 translocation robust z-score":-0.63,"nuclear/cytoplasmic p65 ratio, rep 1":1.49,"nuclear/cytoplasmic p65 ratio, rep 2":1.61,"low cell count flag":"enough cells to score","activity call":"inactive"}
{"gene symbol":"Yju2","nuclear/cytoplasmic p65 ratio, rep 1":1.36,"nuclear/cytoplasmic p65 ratio, rep 2":1.45,"low cell count flag":"fewer than 50 cells per well; well left out of scoring","activity call":"inactive"}
{"gene symbol":"Sdc1","p65 translocation robust z-score":0.5,"nuclear/cytoplasmic p65 ratio, rep 1":1.5,"nuclear/cytoplasmic p65 ratio, rep 2":1.26,"low cell count flag":"enough cells to score","activity call":"inactive"}
{"gene symbol":"Galntl6","nuclear/cytoplasmic p65 ratio, rep 1":1.23,"nuclear/cytoplasmic p65 ratio, rep 2":1.16,"low cell count flag":"fewer than 50 cells per well; well left out of scoring","activity call":"inactive"}
{"gene symbol":"Tor4a","p65 translocation robust z-score":-1.33,"nuclear/cytoplasmic p65 ratio, rep 1":1.26,"nuclear/cytoplasmic p65 ratio, rep 2":1.34,"low cell count flag":"enough cells to score","activity call":"inactive"}

An excerpt from above, reduced to “nuclear/cytoplasmic p65 ratio, rep 1”.
Yju2	1.36
Sdc1	1.5
Galntl6	1.23
